Experimental findings from PubChem BioAssay AID264 (DTP/NCI, 2004) are described below.

The list shows only some results of the screen, not a fair sample: it is rich in T/C values a quarter to a half above the control, in often repeated tests (any T/C) and in doses without a T/C. Further doses and runs are listed elsewhere. T/C: endpoint of the treated group in % of that of the vehicle group. Schedules are NCI's codes, read here as Q, the interval in days (D) or hours (H), X, the number of doses. Some entries give survivors of the animals treated and no T/C: the source files T/C as zero there, which appears to mark a toxic dose or a test without result, not a measured value. Survivors were counted at the toxicity check, usually on the fifth day, unless a day is given; later deaths do not show. Some entries were tested several times; their values stand side by side, smallest first. Some molecules as drawn cover several salts, stereoisomers or complexes of the source; a dose is that of the sample tested.

The assay deals with nude mice, LX-1 lung xenograft intrarenal, tumor weight T/C. Nature of the assay: NCI In Vivo Anticancer Drug Screen. Data for tumor model Human Lung LX-1 Xenograft (intrarenal inoculation) in NU/NU Swiss (nude) mice. The settings on record: T/C endpoint: mean tumor weight change, higher T/C = larger tumour; for T/C: evaluated on day 11. The procedure, abridged:
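Antitumor effect is expressed as a ratio: the mean tumor measurement of the drug-treated group relative to that of the vehicle-dosed control group.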
Background: Xenograft models place foreign cells or tissue in a host animal.

Setting [1] is: dose: 150.0 mg/kg/injection, schedule: Q04DX003 (sc), vehicle: Klucel (hydroxypropylcellulose) (HPC).
[2] abbreviates: dose: 16.0 mg/kg/injection, schedule: Q01DX010 (sc), vehicle: saline.

As to `CC1(C)N=C(N)N=C(N)N1c1ccc(F)c(C(F)(F)F)c1`, the survivor count (dose: 12.5 mg/kg/injection, schedule: Q01DX010 (sc), vehicle: saline) is given as 1 of 3 on day 11; the survivor count (dose: 25.0 mg/kg/injection, schedule: Q01DX010 (sc), vehicle: saline) is given as 1 of 3 on day 11; the survivor count (dose: 50.0 mg/kg/injection, schedule: Q01DX010 (sc), vehicle: saline) is listed as 0 of 3 on day 11; the survivor count (dose: 100.0 mg/kg/injection, schedule: Q01DX010 (sc), vehicle: saline) is 0 of 3 on day 11.

For the molecule `C=C(C)[C@H]1Cc2c(ccc3c2O[C@@H]2COc4cc(OC)c(OC)cc4[C@@H]2C3=O)O1`, the T/C (dose: 8.0 mg/kg/injection, schedule: Q01DX010 (sc), vehicle: saline with Tween-80) is 149 % of control. Under “dose: 16.0 mg/kg/injection, schedule: Q01DX010 (sc), vehicle: saline with Tween-80”, the survivor count is 1 of 3 on day 11.

As to `N=C1CCCS1`, under “dose: 150.0 mg/kg/injection, schedule: Q04DX003 (sc), vehicle: saline”, the survivor count is on record as 3 of 6 on day 11.

For `CCc1ccc(C2=C(O)C(=O)C(c3ccccc3)=C(O)C2=O)cc1`, the T/C under setting [1] was 140 % of control.

Take `CN(C)C=O`: the T/C (dose: 200.0 mg/kg/injection, schedule: Q01DX010 (sc), vehicle: saline) was 138 % of control and the T/C (dose: 400.0 mg/kg/injection, schedule: Q01DX010 (sc), vehicle: saline) is 129 % of control.

In the case of `COC12C(COC(N)=O)C3=C(C(=O)C(C)=C(N)C3=O)N1CC1C2N1C` (centres undefined), the survivor count is 0 of 3 on day 11 and 1 of 3 on day 11 under setting [2]; 0 of 3 on day 11 (dose: 32.0 mg/kg/injection, schedule: Q01DX010 (sc), vehicle: saline).

For the molecule `COc1cc([C@@H]2c3cc4c(c(O)c3C[C@H]3COC(=O)[C@@H]32)OCO4)cc(OC)c1OC`, the survivor count under setting [2] is 0 of 3 on day 11.

As to `COc1cc(NCc2ccc3nc(N)nc(N)c3c2C)cc(OC)c1OC`, the survivor count reads like this: (dose: 10.0 mg/kg/injection, schedule: Q01DX010 (sc), vehicle: sodium bicarbonate) 0 of 2 on day 11; (dose: 300.0 mg/kg/injection, schedule: Q04DX003 (sc), vehicle: water) 2 of 6 on day 11; (dose: 600.0 mg/kg/injection, schedule: Q04DX003 (sc), vehicle: water) 0 of 6 on day 11.

For `COC1=C(N)C(=O)c2nc(-c3nc(C(=O)O)c(C)c(-c4ccc(OC)c(OC)c4O)c3N)ccc2C1=O`, the survivor count runs as follows: (dose: 1.0 mg/kg/injection, schedule: Q01DX010 (sc), vehicle: saline) 0 of 3 on day 11; (dose: 2.0 mg/kg/injection, schedule: Q01DX010 (sc), vehicle: saline) 0 of 6 on day 11.

For the molecule `O=C1[C@H]2CCC[C@H]2[C@H]2CCC[C@@H]12`, the T/C (dose: 400.0 mg/kg/injection, schedule: Q04DX003 (sc), vehicle: saline with Tween-80) is 127 % of control.

With `CSc1ccc2c(c1)C(N1CCN(C)CC1)Cc1ccccc1S2` (centres undefined), the T/C (dose: 12.5 mg/kg/injection, schedule: Q04DX003 (sc), vehicle: saline with Tween-80) is 140 % of control. Moreover, the survivor count (dose: 200.0 mg/kg/injection, schedule: Q04DX003 (sc), vehicle: saline with Tween-80) was 1 of 6 on day 11.

With `CN=S(=O)(OCCCCCOS(=O)(=NC)c1ccccc1)c1ccccc1` (centres undefined), the T/C (dose: 100.0 mg/kg/injection, schedule: Q04DX003 (sc), vehicle: saline with Tween-80) was 129 % of control.

As to `CC[N+](CC)(CC)CC`, for the setting “dose: 24.0 mg/kg/injection, schedule: Q01DX010 (sc), vehicle: saline with Tween-80”, the survivor count is 0 of 3 on day 11.

Regarding `COc1ccc(-c2cc(C(=O)Nc3cc(C(F)(F)F)cc(C(F)(F)F)c3)c3ccccc3n2)cc1`, under “dose: 1200.0 mg/kg/injection, schedule: Q04DX003 (ip), vehicle: DMSO”, the survivor count was 3 of 6 on day 11.

As to `CC1=CC(=Nc2ccc(N(CCCl)CCCl)cc2)C=C(C)C1=O`, the survivor count runs as follows: (dose: 300.0 mg/kg/injection, schedule: Q04DX003 (sc), vehicle: Klucel (hydroxypropylcellulose) (HPC)) 3 of 6 on day 11; (dose: 1200.0 mg/kg/injection, schedule: Q04DX003 (sc), vehicle: Klucel (hydroxypropylcellulose) (HPC)) 3 of 6 on day 11.

In the case of `COC(=O)C(F)C(Br)C(=O)OC` (centres undefined), under “dose: 150.0 mg/kg/injection, schedule: Q04DX003 (sc), vehicle: saline with Tween-80”, the survivor count was 2 of 6 on day 11.

As for `Cc1c2ccc3ccccc3c2c[n+]2ccccc12`, the survivor count (dose: 37.5 mg/kg/injection, schedule: Q04DX003 (sc), vehicle: Klucel (hydroxypropylcellulose) (HPC)) is 3 of 6 on day 11.

For the molecule `COc1c(CNC(=O)CCl)cc2[nH]c(C)cc2c1CNC(=O)CCl`, the T/C (dose: 50.0 mg/kg/injection, schedule: Q01DX010 (sc), vehicle: Klucel (hydroxypropylcellulose) (HPC)) is 128 % of control. Also, the survivor count (dose: 2400.0 mg/kg/injection, schedule: Q04DX003 (sc), vehicle: Klucel (hydroxypropylcellulose) (HPC)) is reported as 3 of 6 on day 11.

With `NC(=O)/C=C/c1c[nH]c2nccnc12`, the survivor count (dose: 100.0 mg/kg/injection, schedule: Q04DX003 (sc), vehicle: water) is recorded as 3 of 6 on day 11; the survivor count (dose: 200.0 mg/kg/injection, schedule: Q04DX003 (sc), vehicle: water) is reported as 1 of 5 on day 11; the survivor count (dose: 400.0 mg/kg/injection, schedule: Q04DX003 (sc), vehicle: water) is on record as 3 of 6 on day 11.

For `Cc1c2cc[n+](C)cc2c(C)c2c1[nH]c1ccc(O)cc12`, the survivor count runs as follows: (dose: 3.0 mg/kg/injection, schedule: Q04DX003 (sc), vehicle: water) 3 of 6 on day 11; (dose: 6.0 mg/kg/injection, schedule: Q04DX003 (sc), vehicle: water) 0 of 6 on day 11; (dose: 12.0 mg/kg/injection, schedule: Q04DX003 (sc), vehicle: water) 0 of 6 on day 11.

Consider `O=C1C=C2C(=CCOC2O)O1` (centres undefined), for which the T/C (dose: 4.0 mg/kg/injection, schedule: Q04DX003 (sc), vehicle: Klucel (hydroxypropylcellulose) (HPC)) was 143 % of control.

In the case of `CC(=O)NC(C=O)OCC=O` (centres undefined), the survivor count (dose: 800.0 mg/kg/injection, schedule: Q04DX003 (sc), vehicle: water) is listed as 1 of 6 on day 11.

Take `O=C([CH-]C(=O)C(F)(F)F)c1ccccc1.O=C([CH-]C(=O)C(F)(F)F)c1ccccc1.O=C([CH-]C(=O)C(F)(F)F)c1ccccc1.O=C([CH-]C(=O)C(F)(F)F)c1ccccc1.[Eu+3].c1ccncc1`: the survivor count (dose: 1600.0 mg/kg/injection, schedule: Q01DX010 (sc), vehicle: Klucel (hydroxypropylcellulose) (HPC)) was 0 of 3 on day 11.

Take `CCCNC1=C(C)C(=O)C2=C(C1=O)[C@H](COC(N)=O)[C@]1(OC)[C@@H]3N[C@@H]3CN21`: the T/C (dose: 6.0 mg/kg/injection, schedule: Q04DX003 (sc), vehicle: suspension in saline) was 127 % of control. In addition, the survivor count (dose: 48.0 mg/kg/injection, schedule: Q04DX003 (sc), vehicle: suspension in saline) is 0 of 6 on day 11 and 3 of 5 on day 11.

Take `CCCCCCCCCCCCCC#CC(=O)O`: the survivor count (dose: 600.0 mg/kg/injection, schedule: Q04DX003 (sc), vehicle: saline with Tween-80) is given as 3 of 6 on day 11.

As for `COc1cc(O)c2c(O)c3c(c4c2c1[C@]1(C4)C(C)=CCCC1(C)C)[C@H](O)[C@@]1(O)CC(=O)C(C(N)=O)=C(O)[C@@]1(O)C3=O`, for the setting “dose: 2400.0 mg/kg/injection, schedule: Q04DX003 (sc), vehicle: saline with Tween-80”, the survivor count is 3 of 6 on day 11.

Regarding `CCC[CH2][Hg][Cl]`, the survivor count (dose: 75.0 mg/kg/injection, schedule: Q04DX003 (sc), vehicle: Klucel (hydroxypropylcellulose) (HPC)) is given as 2 of 6 on day 11 and the survivor count under setting [1] is on record as 1 of 6 on day 11.

Consider `CO[C@H]1C[C@](C)(O)Cc2cc3c(c(O)c21)C(=O)c1c(O)cc2c(c1C3=O)O[C@@H]1O[C@@]2(C)[C@H](O)[C@@H](N(C)C)[C@@H]1O`, for which, where the note is “dose: 3.12 mg/kg/injection, schedule: Q01DX010 (sc), vehicle: other”, the T/C was 131 % of control. Further, the survivor count reads like this: (dose: 12.5 mg/kg/injection, schedule: Q01DX010 (sc), vehicle: other) 1 of 3 on day 11; (dose: 25.0 mg/kg/injection, schedule: Q01DX010 (sc), vehicle: other) 0 of 2 on day 11 and 0 of 3 on day 11.

As for `N=C(N)SCc1cccc2c(=O)cc(-c3ccccc3)oc12`, the survivor count (dose: 2400.0 mg/kg/injection, schedule: Q04DX003 (sc), vehicle: suspension in saline) is 3 of 6 on day 11.
